Data reported in patent US20260079169A1, “VOLATILE ORGANIC COMPOUNDS AS MARKERS FOR CELLULAR COMMUNICATION” (Technion Research and Development Foundation Limited, priority 2020, published 2026).

Legend:
[1] = test system: A549, H1299, H1975 human lung cancer lines and BEAS-2B normal cell line, each cultured alone; test: VOCs headspace analysis (ITEX GC-MS) of mono-culture groups (Format-1), bulk cell samples 1×10^4 cells; format: cell-based; conditions: bulk 1 × 10^4 cell
[2] = test system: different-cell pairs of BEAS-2B, A549, H1299, H1975 without physical contact under a mutual headspace; test: VOCs headspace analysis (ITEX GC-MS) of different-cell pair co-culture headspace groups (Format-3), bulk cell samples; format: cell-based, human; conditions: bulk 1 × 10^4 cell

Compound: CC(C)(C)c1ccc(O)c(C(C)(C)C)c1 [VOC21]
- VOC level in headspace, area under curve (AUC) normalized by STD AUC ([1]; A (BEAS-2B) mono-culture): 4.821
- VOC level in headspace, area under curve (AUC) normalized by STD AUC ([1]; B (A549) mono-culture): 0
- VOC level in headspace, area under curve (AUC) normalized by STD AUC ([1]; C (H1299) mono-culture): 0
- VOC level in headspace, area under curve (AUC) normalized by STD AUC ([1]; D (H1975) mono-culture): 7.283
- VOC level in headspace, area under curve (AUC) normalized by STD AUC ([2]; A + B (BEAS-2B + A549)): 0
- VOC level in headspace, area under curve (AUC) normalized by STD AUC ([2]; A + C (BEAS-2B + H1299)): 0
- VOC level in headspace, area under curve (AUC) normalized by STD AUC ([2]; A + D (BEAS-2B + H1975)): 0
- VOC level in headspace, area under curve (AUC) normalized by STD AUC ([2]; B + C (A549 + H1299)): 0
- VOC level in headspace, area under curve (AUC) normalized by STD AUC ([2]; B + D (A549 + H1975)): 0
- VOC level in headspace, area under curve (AUC) normalized by STD AUC ([2]; C + D (H1299 + H1975)): 0

Compound: CC=C(C)CCCC [VOC22]
- VOC level in headspace, area under curve (AUC) normalized by STD AUC ([1]; A (BEAS-2B) mono-culture): 0
- VOC level in headspace, area under curve (AUC) normalized by STD AUC ([1]; B (A549) mono-culture): 0
- VOC level in headspace, area under curve (AUC) normalized by STD AUC ([1]; C (H1299) mono-culture): 0
- VOC level in headspace, area under curve (AUC) normalized by STD AUC ([1]; D (H1975) mono-culture): 0
- VOC level in headspace, area under curve (AUC) normalized by STD AUC ([2]; A + B (BEAS-2B + A549)): 8.188
- VOC level in headspace, area under curve (AUC) normalized by STD AUC ([2]; A + C (BEAS-2B + H1299)): 0
- VOC level in headspace, area under curve (AUC) normalized by STD AUC ([2]; A + D (BEAS-2B + H1975)): 0
- VOC level in headspace, area under curve (AUC) normalized by STD AUC ([2]; B + C (A549 + H1299)): 2.834
- VOC level in headspace, area under curve (AUC) normalized by STD AUC ([2]; B + D (A549 + H1975)): 0
- VOC level in headspace, area under curve (AUC) normalized by STD AUC ([2]; C + D (H1299 + H1975)): 0

Compound: C=C(C)CC(C)CCC (centres unmarked) [VOC23]
- VOC level in headspace, area under curve (AUC) normalized by STD AUC ([1]; A (BEAS-2B) mono-culture): 0
- VOC level in headspace, area under curve (AUC) normalized by STD AUC ([1]; B (A549) mono-culture): 1.771
- VOC level in headspace, area under curve (AUC) normalized by STD AUC ([1]; C (H1299) mono-culture): 0
- VOC level in headspace, area under curve (AUC) normalized by STD AUC ([1]; D (H1975) mono-culture): 5.249
- VOC level in headspace, area under curve (AUC) normalized by STD AUC ([2]; A + B (BEAS-2B + A549)): 4.214
- VOC level in headspace, area under curve (AUC) normalized by STD AUC ([2]; A + C (BEAS-2B + H1299)): 1.824
- VOC level in headspace, area under curve (AUC) normalized by STD AUC ([2]; A + D (BEAS-2B + H1975)): 3.715
- VOC level in headspace, area under curve (AUC) normalized by STD AUC ([2]; B + C (A549 + H1299)): 0
- VOC level in headspace, area under curve (AUC) normalized by STD AUC ([2]; B + D (A549 + H1975)): 0
- VOC level in headspace, area under curve (AUC) normalized by STD AUC ([2]; C + D (H1299 + H1975)): 0

Compound: CCCCC(C)(CCC)CCCC [VOC24]
- VOC level in headspace, area under curve (AUC) normalized by STD AUC ([1]; A (BEAS-2B) mono-culture): 1.728
- VOC level in headspace, area under curve (AUC) normalized by STD AUC ([1]; B (A549) mono-culture): 0
- VOC level in headspace, area under curve (AUC) normalized by STD AUC ([1]; C (H1299) mono-culture): 0
- VOC level in headspace, area under curve (AUC) normalized by STD AUC ([1]; D (H1975) mono-culture): 8.902
- VOC level in headspace, area under curve (AUC) normalized by STD AUC ([2]; A + B (BEAS-2B + A549)): 3.154
- VOC level in headspace, area under curve (AUC) normalized by STD AUC ([2]; A + C (BEAS-2B + H1299)): 4.104
- VOC level in headspace, area under curve (AUC) normalized by STD AUC ([2]; A + D (BEAS-2B + H1975)): 9.877
- VOC level in headspace, area under curve (AUC) normalized by STD AUC ([2]; B + C (A549 + H1299)): 0
- VOC level in headspace, area under curve (AUC) normalized by STD AUC ([2]; B + D (A549 + H1975)): 8.236
- VOC level in headspace, area under curve (AUC) normalized by STD AUC ([2]; C + D (H1299 + H1975)): 2.95

Compound: CC(CC(C)(C)C)CC(C)(C)C [VOC25]
- VOC level in headspace, area under curve (AUC) normalized by STD AUC ([1]; A (BEAS-2B) mono-culture): 0
- VOC level in headspace, area under curve (AUC) normalized by STD AUC ([1]; B (A549) mono-culture): 3.229
- VOC level in headspace, area under curve (AUC) normalized by STD AUC ([1]; C (H1299) mono-culture): 0
- VOC level in headspace, area under curve (AUC) normalized by STD AUC ([1]; D (H1975) mono-culture): 7.437
- VOC level in headspace, area under curve (AUC) normalized by STD AUC ([2]; A + B (BEAS-2B + A549)): 2.599
- VOC level in headspace, area under curve (AUC) normalized by STD AUC ([2]; A + C (BEAS-2B + H1299)): 0
- VOC level in headspace, area under curve (AUC) normalized by STD AUC ([2]; A + D (BEAS-2B + H1975)): 0
- VOC level in headspace, area under curve (AUC) normalized by STD AUC ([2]; B + C (A549 + H1299)): 3.879
- VOC level in headspace, area under curve (AUC) normalized by STD AUC ([2]; B + D (A549 + H1975)): 9.241
- VOC level in headspace, area under curve (AUC) normalized by STD AUC ([2]; C + D (H1299 + H1975)): 2.6295

Compound: CCCC(C)CCC [VOC26]
- VOC level in headspace, area under curve (AUC) normalized by STD AUC ([1]; A (BEAS-2B) mono-culture): 0
- VOC level in headspace, area under curve (AUC) normalized by STD AUC ([1]; B (A549) mono-culture): 0
- VOC level in headspace, area under curve (AUC) normalized by STD AUC ([1]; C (H1299) mono-culture): 0
- VOC level in headspace, area under curve (AUC) normalized by STD AUC ([1]; D (H1975) mono-culture): 4.215
- VOC level in headspace, area under curve (AUC) normalized by STD AUC ([2]; A + B (BEAS-2B + A549)): 0
- VOC level in headspace, area under curve (AUC) normalized by STD AUC ([2]; A + C (BEAS-2B + H1299)): 0
- VOC level in headspace, area under curve (AUC) normalized by STD AUC ([2]; A + D (BEAS-2B + H1975)): 0
- VOC level in headspace, area under curve (AUC) normalized by STD AUC ([2]; B + C (A549 + H1299)): 0
- VOC level in headspace, area under curve (AUC) normalized by STD AUC ([2]; B + D (A549 + H1975)): 6.901
- VOC level in headspace, area under curve (AUC) normalized by STD AUC ([2]; C + D (H1299 + H1975)): 0

Compound: NC(=O)CF [VOC27]
- VOC level in headspace, area under curve (AUC) normalized by STD AUC ([1]; A (BEAS-2B) mono-culture): 2.736
- VOC level in headspace, area under curve (AUC) normalized by STD AUC ([1]; B (A549) mono-culture): 0
- VOC level in headspace, area under curve (AUC) normalized by STD AUC ([1]; C (H1299) mono-culture): 1.8542
- VOC level in headspace, area under curve (AUC) normalized by STD AUC ([1]; D (H1975) mono-culture): 0
- VOC level in headspace, area under curve (AUC) normalized by STD AUC ([2]; A + B (BEAS-2B + A549)): 0
- VOC level in headspace, area under curve (AUC) normalized by STD AUC ([2]; A + C (BEAS-2B + H1299)): 0
- VOC level in headspace, area under curve (AUC) normalized by STD AUC ([2]; A + D (BEAS-2B + H1975)): 0
- VOC level in headspace, area under curve (AUC) normalized by STD AUC ([2]; B + C (A549 + H1299)): 0
- VOC level in headspace, area under curve (AUC) normalized by STD AUC ([2]; B + D (A549 + H1975)): 0
- VOC level in headspace, area under curve (AUC) normalized by STD AUC ([2]; C + D (H1299 + H1975)): 0

Compound: COC(=O)C(OC)OC [VOC28]
- VOC level in headspace, area under curve (AUC) normalized by STD AUC ([1]; A (BEAS-2B) mono-culture): 2.368
- VOC level in headspace, area under curve (AUC) normalized by STD AUC ([1]; B (A549) mono-culture): 0
- VOC level in headspace, area under curve (AUC) normalized by STD AUC ([1]; C (H1299) mono-culture): 0
- VOC level in headspace, area under curve (AUC) normalized by STD AUC ([1]; D (H1975) mono-culture): 0
- VOC level in headspace, area under curve (AUC) normalized by STD AUC ([2]; A + B (BEAS-2B + A549)): 0
- VOC level in headspace, area under curve (AUC) normalized by STD AUC ([2]; A + C (BEAS-2B + H1299)): 0
- VOC level in headspace, area under curve (AUC) normalized by STD AUC ([2]; A + D (BEAS-2B + H1975)): 2.03
- VOC level in headspace, area under curve (AUC) normalized by STD AUC ([2]; B + C (A549 + H1299)): 0
- VOC level in headspace, area under curve (AUC) normalized by STD AUC ([2]; B + D (A549 + H1975)): 0
- VOC level in headspace, area under curve (AUC) normalized by STD AUC ([2]; C + D (H1299 + H1975)): 0
